These are yes or no findings as the source states them, for the method shown. Binding seen in cells or lysates may run through a third protein. A yes stands for co-enrichment or nearness to the bait. Other partners may have been found.
Molecular target: Human butyrylcholinesterase (human) (UniProt P06276)
Experiment: affinity purification with mass spectrometry

Sequences of proteins named here, by UniProt entry; tags and fusion partners are left off. Residues count along the entry.
UniProt P06276, residues 29-602: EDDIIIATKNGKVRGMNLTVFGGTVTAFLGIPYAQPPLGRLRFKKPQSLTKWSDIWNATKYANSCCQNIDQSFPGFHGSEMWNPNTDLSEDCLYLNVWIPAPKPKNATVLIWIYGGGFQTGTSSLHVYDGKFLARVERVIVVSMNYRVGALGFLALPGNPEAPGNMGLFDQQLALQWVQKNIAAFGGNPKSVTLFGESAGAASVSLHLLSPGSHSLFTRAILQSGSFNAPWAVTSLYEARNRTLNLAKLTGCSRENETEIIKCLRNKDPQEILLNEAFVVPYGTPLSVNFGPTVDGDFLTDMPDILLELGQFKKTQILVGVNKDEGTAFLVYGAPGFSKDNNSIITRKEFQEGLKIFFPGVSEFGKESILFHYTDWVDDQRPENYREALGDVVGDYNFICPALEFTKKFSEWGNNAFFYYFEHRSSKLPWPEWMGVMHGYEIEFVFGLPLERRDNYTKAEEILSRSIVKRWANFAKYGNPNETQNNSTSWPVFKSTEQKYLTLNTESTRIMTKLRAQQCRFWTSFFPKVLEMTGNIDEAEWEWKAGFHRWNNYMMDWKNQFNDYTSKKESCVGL

PSPPLPPPPPPPPPPPPPPPPPPPPLP
binding: binds

From publication PMC9838835
